From patent US20260183408A1, “POLYPEPTIDE AND USE THEREOF” (SHENZHEN CHENYANG BIOLOGICAL TECHNOLOGY CO., LTD, priority 2022, published 2026) come the findings set out here.

The chains behind the UniProt entries cited, without tags or fusion partners. Where a name states a change or a piece, a line headed by the entry shows the natural chain unless it says otherwise. Residues count along the entry.
UniProt P34968, residues 33-459: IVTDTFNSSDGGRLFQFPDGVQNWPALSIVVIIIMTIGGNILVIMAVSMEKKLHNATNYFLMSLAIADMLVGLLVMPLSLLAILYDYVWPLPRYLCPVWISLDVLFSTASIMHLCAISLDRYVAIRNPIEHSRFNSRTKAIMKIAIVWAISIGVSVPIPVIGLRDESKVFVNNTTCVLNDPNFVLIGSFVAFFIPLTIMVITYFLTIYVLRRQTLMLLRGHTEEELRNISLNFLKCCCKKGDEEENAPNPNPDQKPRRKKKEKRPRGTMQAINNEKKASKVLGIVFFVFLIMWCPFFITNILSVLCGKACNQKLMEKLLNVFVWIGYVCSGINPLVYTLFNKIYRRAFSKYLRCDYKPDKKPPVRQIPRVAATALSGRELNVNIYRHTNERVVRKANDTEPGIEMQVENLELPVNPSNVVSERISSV
UniProt P14416: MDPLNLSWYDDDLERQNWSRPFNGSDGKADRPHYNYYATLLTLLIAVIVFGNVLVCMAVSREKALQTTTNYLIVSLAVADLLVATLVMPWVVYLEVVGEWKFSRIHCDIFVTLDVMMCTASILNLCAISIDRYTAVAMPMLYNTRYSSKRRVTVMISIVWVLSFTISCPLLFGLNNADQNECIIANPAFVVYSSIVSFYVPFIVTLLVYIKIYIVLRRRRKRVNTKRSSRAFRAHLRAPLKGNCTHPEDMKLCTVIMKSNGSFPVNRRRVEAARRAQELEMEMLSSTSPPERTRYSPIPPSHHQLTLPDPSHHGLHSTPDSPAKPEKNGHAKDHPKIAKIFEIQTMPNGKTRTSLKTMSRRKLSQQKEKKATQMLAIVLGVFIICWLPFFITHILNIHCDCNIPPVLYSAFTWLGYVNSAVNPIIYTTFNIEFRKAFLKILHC

No constants are given. Whether binding was seen depends on the method and setting. In cells and extracts the contact can be indirect. Some binding calls cover weakened binding; strength is not graded here.

This assay concerns the target 5-HT2CR, endogenous in mouse hippocampal tissue (mouse) (UniProt P34968). Put plainly: GST pulldown from mouse hippocampal tissue extract, Western blot.

On to “GST fusion protein containing the IL3 region of D2R (GST-D2R-IL3) (from UniProt P14416 211-373)”, for which the binding entry is “binds”. The value for “GST fusion protein containing the KVC region of D2R (GST-D2R-KVC) (from UniProt P14416 211-270)” was “binds”.
